# Laboratory results taken from patent US20210030842A1, “FOCAL TREATMENT OF PROSTATE CANCER” (NYMOX CORPORATION, priority 2019, published 2021).
# Part of at least one peptide drawing is inferred or uncertain, most often the ends. Where no end group is shown, it is not given here.
# Key:
# [1] = tested on: men with low grade prostate cancer (Gleason grade ≤6); experiment: Clinical study, Example 4: cancer treatment with new multifocal and an increase in Gleason grade primary pattern in the hemi-prostate; format: in vivo, human
# [2] = tested on: prostate glandular epithelial cells; experiment: Tissue culture genetic array / in vitro cell effects; format: cell-based
# [3] = tested on: men with low grade prostate cancer (Gleason grade ≤6); experiment: Clinical study, Example 1: hemi-prostate multifocal cancer with Gleason upgrade; format: in vivo, human
# [4] = tested on: men with low grade prostate cancer (Gleason grade ≤6); experiment: Clinical study, Example 2: hemi-prostate multifocal cancer with increase in Gleason primary pattern; format: in vivo, human
# [5] = tested on: men with low grade prostate cancer (Gleason grade ≤6); experiment: Clinical study, Example 3: cancer treatment with new multifocal with increased Gleason grade in the hemi-prostate; format: in vivo, human
# [6] = FT 2.5 mg single transrectal intraprostatic injection, <=18 mos from treatment
# [7] = FT 2.5 mg single transrectal intraprostatic injection, <=36 mos from treatment
# [8] = FT 2.5 mg single transrectal intraprostatic injection, <=48 mos from treatment
# [9] = FT 2.5 mg, <=18 mos from treatment
# [10] = FT 2.5 mg, <=36 mos from treatment
# [11] = FT 2.5 mg, <=48 mos from treatment
# [12] = FT 15 mg single transrectal intraprostatic injection, <=18 mos from treatment
# [13] = FT 15 mg single transrectal intraprostatic injection, <=36 mos from treatment
# [14] = FT 15 mg single transrectal intraprostatic injection, <=48 mos from treatment
# [15] = FT 15 mg, <=18 mos from treatment
# [16] = FT 15 mg, <=36 mos from treatment
# [17] = FT 15 mg, <=48 mos from treatment
# [18] = Pooled FT (2.5 mg and 15 mg groups), <=18 mos from treatment
# [19] = Pooled FT (2.5 mg and 15 mg groups), <=36 mos from treatment
# [20] = Pooled FT (2.5 mg and 15 mg groups), <=48 mos from treatment
# [21] = Pooled FT, <=18 mos from treatment
# [22] = Pooled FT, <=36 mos from treatment
# [23] = Pooled FT, <=48 mos from treatment
# [24] = in vitro, tissue culture genetic array data
sequence,measurement,setting,value
"IDQQVLSRIKLEIKRCL [FT, fexapotide triflutate]",percentage of patients with cancer treatment with new multifocal and an increase in Gleason grade primary pattern in the hemi-prostate,[1]; [6],0%
same,percentage of patients with cancer treatment with new multifocal and an increase in Gleason grade primary pattern in the hemi-prostate,[1]; [7],0%
same,percentage of patients with cancer treatment with new multifocal and an increase in Gleason grade primary pattern in the hemi-prostate,[1]; [8],0%
same,"% Imp. vs active surveillance control, cancer treatment with new multifocal and an increase in Gleason grade primary pattern in the hemi-prostate",[1]; [9],100%
same,"% Imp. vs active surveillance control, cancer treatment with new multifocal and an increase in Gleason grade primary pattern in the hemi-prostate",[1]; [10],100%
same,"% Imp. vs active surveillance control, cancer treatment with new multifocal and an increase in Gleason grade primary pattern in the hemi-prostate",[1]; [11],100%
same,percentage of patients with cancer treatment with new multifocal and an increase in Gleason grade primary pattern in the hemi-prostate,[1]; [12],2.6%
same,percentage of patients with cancer treatment with new multifocal and an increase in Gleason grade primary pattern in the hemi-prostate,[1]; [13],3.6%
same,percentage of patients with cancer treatment with new multifocal and an increase in Gleason grade primary pattern in the hemi-prostate,[1]; [14],4.2%
same,"% Imp. vs active surveillance control, cancer treatment with new multifocal and an increase in Gleason grade primary pattern in the hemi-prostate",[1]; [15],75.2%
same,"% Imp. vs active surveillance control, cancer treatment with new multifocal and an increase in Gleason grade primary pattern in the hemi-prostate",[1]; [16],79.5%
same,"% Imp. vs active surveillance control, cancer treatment with new multifocal and an increase in Gleason grade primary pattern in the hemi-prostate",[1]; [17],77.7%
same,percentage of patients with cancer treatment with new multifocal and an increase in Gleason grade primary pattern in the hemi-prostate,[1]; [18],1.3%
same,percentage of patients with cancer treatment with new multifocal and an increase in Gleason grade primary pattern in the hemi-prostate,[1]; [19],1.7%
same,percentage of patients with cancer treatment with new multifocal and an increase in Gleason grade primary pattern in the hemi-prostate,[1]; [20],2.1%
same,"% Imp. vs active surveillance control, cancer treatment with new multifocal and an increase in Gleason grade primary pattern in the hemi-prostate",[1]; [21],87.6%
same,"% Imp. vs active surveillance control, cancer treatment with new multifocal and an increase in Gleason grade primary pattern in the hemi-prostate",[1]; [22],90.3%
same,"% Imp. vs active surveillance control, cancer treatment with new multifocal and an increase in Gleason grade primary pattern in the hemi-prostate",[1]; [23],88.8%
same,cellular effects (apoptotic process),[2],"selectively causes loss of cell membrane integrity, mitochondrial metabolic arrest, depletion of RNA, DNA lysis and aggregation, and cell fragmentation and cell loss"
same,"effect on BCL pathways (BIK, HRK, BCL2L10 and BCL3)",[2]; [24],stimulates
same,"effect on caspase pathways (caspases 7, 8, and 10, caspase recruitment domains 6, 11, and 14, and DIABLO)",[2]; [24],stimulates
same,"effect on tumor necrosis factor pathways (TNF1, TNFSF6, TNFSF8, TNFSF9, CD70 ligands; TNFRSF19L, TNFRSF25, TRAF2, TRAF3, TRAF4, TRAF6 receptors)",[2]; [24],stimulates
same,percentage of patients with hemi-prostate multifocal cancer with Gleason upgrade,[3]; [6],8.6%
same,percentage of patients with hemi-prostate multifocal cancer with Gleason upgrade,[3]; [7],16.7%
same,percentage of patients with hemi-prostate multifocal cancer with Gleason upgrade,[3]; [8],42.9%
same,"% Imp. vs active surveillance control, hemi-prostate multifocal cancer with Gleason upgrade",[3]; [9],54.26%
same,"% Imp. vs active surveillance control, hemi-prostate multifocal cancer with Gleason upgrade",[3]; [10],53.2%
same,"% Imp. vs active surveillance control, hemi-prostate multifocal cancer with Gleason upgrade",[3]; [11],5.7%
same,percentage of patients with hemi-prostate multifocal cancer with Gleason upgrade,[3]; [12],5.7%
same,percentage of patients with hemi-prostate multifocal cancer with Gleason upgrade,[3]; [13],9.1%
same,percentage of patients with hemi-prostate multifocal cancer with Gleason upgrade,[3]; [14],13.3%
same,"% Imp. vs active surveillance control, hemi-prostate multifocal cancer with Gleason upgrade",[3]; [15],69.7%
same,"% Imp. vs active surveillance control, hemi-prostate multifocal cancer with Gleason upgrade",[3]; [16],74.5%
same,"% Imp. vs active surveillance control, hemi-prostate multifocal cancer with Gleason upgrade",[3]; [17],70.8%
same,percentage of patients with hemi-prostate multifocal cancer with Gleason upgrade,[3]; [18],7.1%
same,percentage of patients with hemi-prostate multifocal cancer with Gleason upgrade,[3]; [19],13.0%
same,percentage of patients with hemi-prostate multifocal cancer with Gleason upgrade,[3]; [20],27.6%
same,"% Imp. vs active surveillance control, hemi-prostate multifocal cancer with Gleason upgrade",[3]; [21],62.2%
same,"% Imp. vs active surveillance control, hemi-prostate multifocal cancer with Gleason upgrade",[3]; [22],63.6%
same,"% Imp. vs active surveillance control, hemi-prostate multifocal cancer with Gleason upgrade",[3]; [23],39.3%
same,percentage of patients with hemi-prostate multifocal cancer with increase in Gleason primary pattern (≥4),[4]; [6],0%
same,percentage of patients with hemi-prostate multifocal cancer with increase in Gleason primary pattern (≥4),[4]; [7],0%
same,percentage of patients with hemi-prostate multifocal cancer with increase in Gleason primary pattern (≥4),[4]; [8],0%
same,"% Imp. vs active surveillance control, hemi-prostate multifocal cancer with increase in Gleason primary pattern",[4]; [9],100%
same,"% Imp. vs active surveillance control, hemi-prostate multifocal cancer with increase in Gleason primary pattern",[4]; [10],100%
same,"% Imp. vs active surveillance control, hemi-prostate multifocal cancer with increase in Gleason primary pattern",[4]; [11],100%
same,percentage of patients with hemi-prostate multifocal cancer with increase in Gleason primary pattern (≥4),[4]; [12],2.9%
same,percentage of patients with hemi-prostate multifocal cancer with increase in Gleason primary pattern (≥4),[4]; [13],4.5%
same,percentage of patients with hemi-prostate multifocal cancer with increase in Gleason primary pattern (≥4),[4]; [14],6.7%
same,"% Imp. vs active surveillance control, hemi-prostate multifocal cancer with increase in Gleason primary pattern",[4]; [15],76.8%
same,"% Imp. vs active surveillance control, hemi-prostate multifocal cancer with increase in Gleason primary pattern",[4]; [16],79%
same,"% Imp. vs active surveillance control, hemi-prostate multifocal cancer with increase in Gleason primary pattern",[4]; [17],75.5%
same,percentage of patients with hemi-prostate multifocal cancer with increase in Gleason primary pattern (≥4),[4]; [18],1.4%
same,percentage of patients with hemi-prostate multifocal cancer with increase in Gleason primary pattern (≥4),[4]; [19],2.2%
same,percentage of patients with hemi-prostate multifocal cancer with increase in Gleason primary pattern (≥4),[4]; [20],3.4%
same,"% Imp. vs active surveillance control, hemi-prostate multifocal cancer with increase in Gleason primary pattern",[4]; [21],88.8%
same,"% Imp. vs active surveillance control, hemi-prostate multifocal cancer with increase in Gleason primary pattern",[4]; [22],89.7%
same,"% Imp. vs active surveillance control, hemi-prostate multifocal cancer with increase in Gleason primary pattern",[4]; [23],87.5%
same,percentage of patients with cancer treatment with new multifocal with increased Gleason grade in the hemi-prostate,[5]; [6],4.9%
same,percentage of patients with cancer treatment with new multifocal with increased Gleason grade in the hemi-prostate,[5]; [7],10%
same,percentage of patients with cancer treatment with new multifocal with increased Gleason grade in the hemi-prostate,[5]; [8],17.4%
same,"% Imp. vs active surveillance control, cancer treatment with new multifocal with increased Gleason grade in the hemi-prostate",[5]; [9],69%
same,"% Imp. vs active surveillance control, cancer treatment with new multifocal with increased Gleason grade in the hemi-prostate",[5]; [10],57.4%
same,"% Imp. vs active surveillance control, cancer treatment with new multifocal with increased Gleason grade in the hemi-prostate",[5]; [11],44.4%
same,percentage of patients with cancer treatment with new multifocal with increased Gleason grade in the hemi-prostate,[5]; [12],5.1%
same,percentage of patients with cancer treatment with new multifocal with increased Gleason grade in the hemi-prostate,[5]; [13],7.1%
same,percentage of patients with cancer treatment with new multifocal with increased Gleason grade in the hemi-prostate,[5]; [14],8.3%
same,"% Imp. vs active surveillance control, cancer treatment with new multifocal with increased Gleason grade in the hemi-prostate",[5]; [15],67.7%
same,"% Imp. vs active surveillance control, cancer treatment with new multifocal with increased Gleason grade in the hemi-prostate",[5]; [16],69.8%
same,"% Imp. vs active surveillance control, cancer treatment with new multifocal with increased Gleason grade in the hemi-prostate",[5]; [17],73.5%
same,percentage of patients with cancer treatment with new multifocal with increased Gleason grade in the hemi-prostate,[5]; [18],5%
same,percentage of patients with cancer treatment with new multifocal with increased Gleason grade in the hemi-prostate,[5]; [19],8.6%
same,percentage of patients with cancer treatment with new multifocal with increased Gleason grade in the hemi-prostate,[5]; [20],12.8%
same,"% Imp. vs active surveillance control, cancer treatment with new multifocal with increased Gleason grade in the hemi-prostate",[5]; [21],68.4%
same,"% Imp. vs active surveillance control, cancer treatment with new multifocal with increased Gleason grade in the hemi-prostate",[5]; [22],63.4%
same,"% Imp. vs active surveillance control, cancer treatment with new multifocal with increased Gleason grade in the hemi-prostate",[5]; [23],59.1%
